Measured values as given in US20120034242A1, “CYTOKINE-EXPRESSING CELLULAR VACCINE COMBINATIONS” (BIOSANTE PHARMACEUTICALS, INC., priority 2003, published 2012).
At least one structure is not confirmed: it was looked up by name or label, or the drawing left a doubt.

What was measured:
B16F10 = B16F10 model: B16-GM vaccine plus Celebrex; format: in vivo, mice; conditions: combined with a GM-CSF-expressing cellular vaccine
Procedure: FIGS. 9A and 9B illustrate the results of a study in the B16F10 melanoma model wherein the effect of a cytokine-expressing cellular vaccine was evaluated in combination with Celebrex (Celecoxib: 50 mg/kg/day in the feed starting on Day −7). Mice were challenged on Day 0 with 1×10^5 live B16F10 cells at a dorsal location and were vaccinated on Day 3 with 1×10^6 irradiated dB16gmtd cells at a ventral location.

CT26 tumor = CT26 tumor model: Celebrex monotherapy; format: in vivo, BALB/c mice

Cc1ccc(-c2cc(C(F)(F)F)nn2-c2ccc(S(N)(=O)=O)cc2)cc1 [Celebrex, Celecoxib]
number of surviving and tumor free animals (B16F10): significant increase | effect on CT26 tumor size and overall survival of BALB/c mice (CT26 tumor): significant effect
